For this assay, the target named is M2 (module 2 of DEBS with its natural C-terminal linker) (UniProt Q03131). Put plainly: inferred from selective inhibition of tetraketide production (M2 with M3+TE inhibited, M2(4) with (5)M3+TE not).

Sequences of proteins named here, by UniProt entry; tags and fusion partners are left off. A change or cut given only in a name is not applied to a line headed by its entry.
UniProt Q03131: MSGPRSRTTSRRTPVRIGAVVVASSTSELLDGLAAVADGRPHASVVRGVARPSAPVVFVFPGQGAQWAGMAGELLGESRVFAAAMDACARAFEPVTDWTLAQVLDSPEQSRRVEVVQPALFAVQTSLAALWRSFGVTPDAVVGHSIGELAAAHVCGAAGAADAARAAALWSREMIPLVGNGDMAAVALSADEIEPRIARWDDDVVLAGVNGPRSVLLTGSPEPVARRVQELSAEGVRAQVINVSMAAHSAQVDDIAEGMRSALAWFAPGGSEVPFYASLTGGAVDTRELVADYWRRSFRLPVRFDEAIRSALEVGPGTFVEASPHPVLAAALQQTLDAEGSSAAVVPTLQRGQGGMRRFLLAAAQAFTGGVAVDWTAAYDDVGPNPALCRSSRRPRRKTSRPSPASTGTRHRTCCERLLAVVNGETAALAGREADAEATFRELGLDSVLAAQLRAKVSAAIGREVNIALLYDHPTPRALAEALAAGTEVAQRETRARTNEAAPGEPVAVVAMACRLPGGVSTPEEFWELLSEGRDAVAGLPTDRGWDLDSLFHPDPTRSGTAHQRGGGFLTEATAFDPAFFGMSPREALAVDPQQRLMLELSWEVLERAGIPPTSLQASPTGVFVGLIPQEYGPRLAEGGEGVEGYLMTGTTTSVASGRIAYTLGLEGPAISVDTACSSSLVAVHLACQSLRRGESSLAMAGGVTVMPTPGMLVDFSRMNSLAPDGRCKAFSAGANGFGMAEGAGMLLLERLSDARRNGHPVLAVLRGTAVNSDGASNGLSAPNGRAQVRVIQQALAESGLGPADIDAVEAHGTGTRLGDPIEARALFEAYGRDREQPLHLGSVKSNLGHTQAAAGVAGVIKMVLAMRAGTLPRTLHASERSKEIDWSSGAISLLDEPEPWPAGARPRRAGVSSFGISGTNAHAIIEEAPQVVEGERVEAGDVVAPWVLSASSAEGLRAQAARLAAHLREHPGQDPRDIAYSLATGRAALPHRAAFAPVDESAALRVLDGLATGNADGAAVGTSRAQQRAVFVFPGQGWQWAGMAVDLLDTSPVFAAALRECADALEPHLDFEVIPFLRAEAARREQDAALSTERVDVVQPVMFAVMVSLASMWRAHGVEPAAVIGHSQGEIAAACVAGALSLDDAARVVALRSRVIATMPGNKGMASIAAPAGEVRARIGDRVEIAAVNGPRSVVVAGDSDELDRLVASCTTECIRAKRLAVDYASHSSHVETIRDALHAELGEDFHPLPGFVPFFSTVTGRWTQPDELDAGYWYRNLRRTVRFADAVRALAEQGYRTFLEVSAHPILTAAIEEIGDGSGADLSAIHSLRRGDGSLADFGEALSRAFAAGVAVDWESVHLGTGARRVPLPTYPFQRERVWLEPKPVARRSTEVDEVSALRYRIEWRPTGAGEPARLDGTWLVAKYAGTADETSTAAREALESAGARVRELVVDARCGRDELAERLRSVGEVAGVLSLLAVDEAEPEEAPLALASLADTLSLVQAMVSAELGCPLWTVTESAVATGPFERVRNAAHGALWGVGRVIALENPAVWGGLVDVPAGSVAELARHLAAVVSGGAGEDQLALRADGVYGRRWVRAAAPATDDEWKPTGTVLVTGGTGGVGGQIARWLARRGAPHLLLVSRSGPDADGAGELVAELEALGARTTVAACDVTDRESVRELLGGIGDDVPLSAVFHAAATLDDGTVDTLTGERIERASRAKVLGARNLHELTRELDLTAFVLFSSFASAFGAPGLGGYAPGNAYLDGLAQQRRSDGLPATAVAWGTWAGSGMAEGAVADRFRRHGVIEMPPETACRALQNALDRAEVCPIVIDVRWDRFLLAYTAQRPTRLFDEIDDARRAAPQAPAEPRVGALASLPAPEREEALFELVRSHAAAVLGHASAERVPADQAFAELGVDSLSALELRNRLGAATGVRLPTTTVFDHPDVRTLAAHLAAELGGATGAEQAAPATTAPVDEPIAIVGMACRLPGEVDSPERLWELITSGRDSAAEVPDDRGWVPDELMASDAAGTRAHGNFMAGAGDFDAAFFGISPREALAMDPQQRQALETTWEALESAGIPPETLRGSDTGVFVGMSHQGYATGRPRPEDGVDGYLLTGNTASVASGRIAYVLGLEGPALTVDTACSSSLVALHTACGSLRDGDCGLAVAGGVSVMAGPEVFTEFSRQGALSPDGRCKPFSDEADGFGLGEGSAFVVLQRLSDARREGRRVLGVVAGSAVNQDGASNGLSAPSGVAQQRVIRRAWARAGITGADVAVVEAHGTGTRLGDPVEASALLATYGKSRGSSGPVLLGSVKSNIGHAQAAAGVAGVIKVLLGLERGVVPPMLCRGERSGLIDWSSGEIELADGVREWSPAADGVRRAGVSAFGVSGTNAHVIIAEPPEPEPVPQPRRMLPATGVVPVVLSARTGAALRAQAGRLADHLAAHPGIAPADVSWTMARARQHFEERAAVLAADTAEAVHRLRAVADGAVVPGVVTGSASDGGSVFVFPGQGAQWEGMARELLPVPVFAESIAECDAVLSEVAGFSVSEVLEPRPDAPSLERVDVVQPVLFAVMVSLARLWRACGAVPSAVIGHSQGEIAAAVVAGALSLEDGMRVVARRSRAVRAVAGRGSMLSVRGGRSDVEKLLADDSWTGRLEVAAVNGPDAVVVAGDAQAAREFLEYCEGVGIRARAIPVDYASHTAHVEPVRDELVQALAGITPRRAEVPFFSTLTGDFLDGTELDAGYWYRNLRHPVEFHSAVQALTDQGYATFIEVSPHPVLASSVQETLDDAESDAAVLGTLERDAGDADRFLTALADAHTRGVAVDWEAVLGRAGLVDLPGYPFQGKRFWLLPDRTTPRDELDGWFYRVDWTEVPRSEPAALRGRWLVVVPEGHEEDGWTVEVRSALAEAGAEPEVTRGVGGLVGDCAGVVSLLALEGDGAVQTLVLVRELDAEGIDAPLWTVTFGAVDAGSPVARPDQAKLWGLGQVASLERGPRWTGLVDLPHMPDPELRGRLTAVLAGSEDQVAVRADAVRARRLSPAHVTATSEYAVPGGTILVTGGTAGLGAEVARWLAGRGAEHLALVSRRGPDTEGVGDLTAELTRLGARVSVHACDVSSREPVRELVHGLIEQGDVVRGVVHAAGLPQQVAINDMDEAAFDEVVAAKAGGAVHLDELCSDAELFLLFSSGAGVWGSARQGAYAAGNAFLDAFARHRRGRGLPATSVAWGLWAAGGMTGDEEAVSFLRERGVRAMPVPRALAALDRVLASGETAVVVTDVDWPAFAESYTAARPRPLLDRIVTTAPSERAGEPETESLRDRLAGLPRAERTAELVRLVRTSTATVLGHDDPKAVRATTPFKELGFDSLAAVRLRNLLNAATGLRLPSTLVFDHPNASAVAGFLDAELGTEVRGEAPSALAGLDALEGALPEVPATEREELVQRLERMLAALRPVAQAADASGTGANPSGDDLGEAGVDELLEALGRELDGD

No constants are given. Whether binding was seen depends on the method and setting. Some entries that bind do so weakly or less than the wild type.

As to MTDSEKVAEYLRRATLDLRAARQRIRELESD (C-terminal amide) [M3 N-term (synthetic peptide, N-terminal linker of module 3)], the binding entry was “binds”.

Values taken from patent US20060110789A1, “Methods to mediate polyketide synthase module effectiveness” (priority 2002, published 2006).
